# Measurements published in the supplement of paper PMC10849652.
# Amino acid sequences for entries named in this document (tags omitted). A change or cut given only in a name is not applied to a line headed by its entry.
# UniProt P04150: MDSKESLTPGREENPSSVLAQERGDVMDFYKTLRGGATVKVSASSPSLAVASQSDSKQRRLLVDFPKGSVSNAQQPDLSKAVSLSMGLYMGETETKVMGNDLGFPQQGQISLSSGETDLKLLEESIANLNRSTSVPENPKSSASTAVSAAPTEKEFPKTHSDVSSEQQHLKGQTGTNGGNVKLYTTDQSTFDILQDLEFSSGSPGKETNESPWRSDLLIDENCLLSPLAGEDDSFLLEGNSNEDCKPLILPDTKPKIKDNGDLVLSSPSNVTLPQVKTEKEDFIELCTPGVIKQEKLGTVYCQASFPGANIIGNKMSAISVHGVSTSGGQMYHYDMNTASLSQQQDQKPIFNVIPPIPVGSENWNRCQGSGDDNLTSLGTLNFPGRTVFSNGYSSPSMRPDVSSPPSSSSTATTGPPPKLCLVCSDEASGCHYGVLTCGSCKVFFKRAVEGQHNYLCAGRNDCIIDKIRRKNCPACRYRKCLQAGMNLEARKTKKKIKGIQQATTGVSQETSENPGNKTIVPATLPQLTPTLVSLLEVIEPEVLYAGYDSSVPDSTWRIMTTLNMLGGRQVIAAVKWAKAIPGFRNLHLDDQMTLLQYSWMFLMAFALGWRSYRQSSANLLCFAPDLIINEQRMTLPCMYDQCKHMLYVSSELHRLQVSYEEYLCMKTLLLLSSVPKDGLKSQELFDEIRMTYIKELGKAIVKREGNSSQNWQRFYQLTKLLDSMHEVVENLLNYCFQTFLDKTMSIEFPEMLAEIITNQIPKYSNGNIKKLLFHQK
# UniProt Q9GZP1: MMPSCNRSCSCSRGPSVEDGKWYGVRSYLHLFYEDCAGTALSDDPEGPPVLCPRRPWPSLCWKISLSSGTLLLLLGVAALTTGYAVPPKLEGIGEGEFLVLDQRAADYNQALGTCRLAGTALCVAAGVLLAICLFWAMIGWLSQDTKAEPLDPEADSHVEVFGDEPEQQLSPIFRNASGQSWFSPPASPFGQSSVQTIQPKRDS
# UniProt P25963: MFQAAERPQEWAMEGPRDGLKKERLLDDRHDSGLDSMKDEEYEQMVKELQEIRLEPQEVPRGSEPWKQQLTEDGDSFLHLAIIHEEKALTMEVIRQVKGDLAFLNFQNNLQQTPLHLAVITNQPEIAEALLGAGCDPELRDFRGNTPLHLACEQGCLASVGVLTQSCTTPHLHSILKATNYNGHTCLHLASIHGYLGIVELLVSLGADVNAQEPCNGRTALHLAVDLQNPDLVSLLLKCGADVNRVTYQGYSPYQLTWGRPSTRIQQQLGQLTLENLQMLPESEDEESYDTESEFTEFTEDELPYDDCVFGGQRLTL
# UniProt P69849: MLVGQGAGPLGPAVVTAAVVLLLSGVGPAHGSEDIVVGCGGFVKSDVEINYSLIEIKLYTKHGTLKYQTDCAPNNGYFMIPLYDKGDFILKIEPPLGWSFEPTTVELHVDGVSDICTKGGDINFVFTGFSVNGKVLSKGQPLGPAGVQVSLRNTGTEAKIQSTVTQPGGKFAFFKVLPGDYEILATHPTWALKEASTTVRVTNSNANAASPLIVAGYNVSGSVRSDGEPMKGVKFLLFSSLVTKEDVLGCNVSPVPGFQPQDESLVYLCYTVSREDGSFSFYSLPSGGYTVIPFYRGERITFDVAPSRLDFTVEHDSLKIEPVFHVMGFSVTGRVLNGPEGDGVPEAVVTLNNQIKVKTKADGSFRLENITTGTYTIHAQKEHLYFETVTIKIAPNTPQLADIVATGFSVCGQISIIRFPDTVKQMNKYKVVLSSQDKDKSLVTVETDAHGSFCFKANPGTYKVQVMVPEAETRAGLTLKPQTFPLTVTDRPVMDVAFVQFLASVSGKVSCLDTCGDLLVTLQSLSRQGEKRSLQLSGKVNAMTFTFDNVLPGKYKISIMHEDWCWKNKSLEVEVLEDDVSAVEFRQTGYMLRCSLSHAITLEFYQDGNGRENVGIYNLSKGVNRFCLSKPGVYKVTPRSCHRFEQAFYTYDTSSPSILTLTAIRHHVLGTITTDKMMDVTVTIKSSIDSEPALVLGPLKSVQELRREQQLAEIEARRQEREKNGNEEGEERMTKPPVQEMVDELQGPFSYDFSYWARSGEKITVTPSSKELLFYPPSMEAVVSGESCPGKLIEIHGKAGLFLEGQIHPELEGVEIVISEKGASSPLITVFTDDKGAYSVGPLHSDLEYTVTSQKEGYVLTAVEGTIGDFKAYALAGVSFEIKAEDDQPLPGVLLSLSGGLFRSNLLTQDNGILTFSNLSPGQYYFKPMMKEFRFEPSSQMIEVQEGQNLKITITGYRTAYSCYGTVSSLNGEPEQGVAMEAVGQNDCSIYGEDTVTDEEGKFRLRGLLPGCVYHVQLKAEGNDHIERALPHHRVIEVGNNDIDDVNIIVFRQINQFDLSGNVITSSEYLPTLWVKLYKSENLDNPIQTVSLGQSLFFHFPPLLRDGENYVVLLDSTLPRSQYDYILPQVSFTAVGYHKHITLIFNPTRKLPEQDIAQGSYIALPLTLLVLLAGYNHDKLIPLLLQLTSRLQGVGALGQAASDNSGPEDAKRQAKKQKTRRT
# UniProt Q5SY16: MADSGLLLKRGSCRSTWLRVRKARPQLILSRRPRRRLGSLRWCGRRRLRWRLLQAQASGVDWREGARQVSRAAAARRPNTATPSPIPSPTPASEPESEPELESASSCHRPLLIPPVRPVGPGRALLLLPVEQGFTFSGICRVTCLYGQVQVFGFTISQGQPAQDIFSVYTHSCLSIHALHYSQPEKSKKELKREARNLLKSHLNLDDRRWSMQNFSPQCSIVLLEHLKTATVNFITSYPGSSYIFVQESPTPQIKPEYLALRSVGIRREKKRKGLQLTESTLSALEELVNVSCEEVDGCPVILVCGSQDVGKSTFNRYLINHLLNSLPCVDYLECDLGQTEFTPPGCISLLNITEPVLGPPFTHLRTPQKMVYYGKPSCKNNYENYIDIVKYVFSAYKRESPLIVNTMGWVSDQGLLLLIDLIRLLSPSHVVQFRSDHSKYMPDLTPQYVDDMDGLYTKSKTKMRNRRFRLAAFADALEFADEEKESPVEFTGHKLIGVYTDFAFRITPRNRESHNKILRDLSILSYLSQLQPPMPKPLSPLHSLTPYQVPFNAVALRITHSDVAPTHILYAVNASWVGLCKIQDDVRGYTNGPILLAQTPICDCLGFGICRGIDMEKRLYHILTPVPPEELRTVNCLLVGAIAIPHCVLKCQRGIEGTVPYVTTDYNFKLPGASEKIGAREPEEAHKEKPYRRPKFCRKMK
# UniProt Q8IXH7, whole entry, looked up: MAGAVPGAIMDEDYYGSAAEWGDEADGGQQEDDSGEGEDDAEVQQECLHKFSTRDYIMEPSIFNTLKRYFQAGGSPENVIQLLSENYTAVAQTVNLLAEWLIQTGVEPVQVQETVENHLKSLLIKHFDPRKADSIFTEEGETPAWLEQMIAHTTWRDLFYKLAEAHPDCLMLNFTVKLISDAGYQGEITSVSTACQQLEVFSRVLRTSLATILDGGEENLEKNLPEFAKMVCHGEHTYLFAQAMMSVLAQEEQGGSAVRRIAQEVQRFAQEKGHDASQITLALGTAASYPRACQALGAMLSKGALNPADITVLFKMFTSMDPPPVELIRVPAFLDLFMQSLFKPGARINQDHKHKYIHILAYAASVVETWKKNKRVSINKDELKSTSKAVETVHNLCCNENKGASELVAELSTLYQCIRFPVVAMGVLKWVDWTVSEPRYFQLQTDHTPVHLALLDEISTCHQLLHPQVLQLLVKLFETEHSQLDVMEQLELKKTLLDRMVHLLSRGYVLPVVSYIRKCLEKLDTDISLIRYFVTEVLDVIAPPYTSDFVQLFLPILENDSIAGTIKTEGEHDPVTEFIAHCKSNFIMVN
# UniProt Q76FK4: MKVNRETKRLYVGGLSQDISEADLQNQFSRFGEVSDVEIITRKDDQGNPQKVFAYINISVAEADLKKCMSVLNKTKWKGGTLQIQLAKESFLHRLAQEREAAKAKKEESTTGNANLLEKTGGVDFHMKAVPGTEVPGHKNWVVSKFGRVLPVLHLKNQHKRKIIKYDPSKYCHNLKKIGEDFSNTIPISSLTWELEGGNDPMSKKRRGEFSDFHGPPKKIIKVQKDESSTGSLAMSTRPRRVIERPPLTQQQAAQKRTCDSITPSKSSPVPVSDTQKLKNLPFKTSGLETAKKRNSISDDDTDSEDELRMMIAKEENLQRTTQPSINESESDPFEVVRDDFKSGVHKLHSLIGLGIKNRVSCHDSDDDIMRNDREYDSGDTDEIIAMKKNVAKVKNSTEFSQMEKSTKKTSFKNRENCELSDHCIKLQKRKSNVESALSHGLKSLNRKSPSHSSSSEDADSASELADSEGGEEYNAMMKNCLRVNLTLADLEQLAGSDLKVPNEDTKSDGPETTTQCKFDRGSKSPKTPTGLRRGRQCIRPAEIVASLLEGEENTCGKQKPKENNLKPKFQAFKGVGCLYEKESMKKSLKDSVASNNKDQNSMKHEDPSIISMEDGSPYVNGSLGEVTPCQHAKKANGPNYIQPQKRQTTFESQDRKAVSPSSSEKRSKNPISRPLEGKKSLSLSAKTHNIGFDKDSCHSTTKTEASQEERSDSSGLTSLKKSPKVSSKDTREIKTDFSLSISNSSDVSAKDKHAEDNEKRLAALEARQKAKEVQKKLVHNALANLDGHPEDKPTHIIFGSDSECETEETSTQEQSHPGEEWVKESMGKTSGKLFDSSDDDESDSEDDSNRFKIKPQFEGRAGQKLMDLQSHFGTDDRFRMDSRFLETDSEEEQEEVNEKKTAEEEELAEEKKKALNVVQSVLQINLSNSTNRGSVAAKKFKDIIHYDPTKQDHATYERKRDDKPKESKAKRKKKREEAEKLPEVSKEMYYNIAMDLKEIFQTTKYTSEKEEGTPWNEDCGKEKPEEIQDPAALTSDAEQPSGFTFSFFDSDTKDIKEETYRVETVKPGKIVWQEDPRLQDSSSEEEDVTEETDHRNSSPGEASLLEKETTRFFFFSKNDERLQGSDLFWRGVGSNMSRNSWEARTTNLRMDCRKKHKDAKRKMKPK
# UniProt Q9NYR9: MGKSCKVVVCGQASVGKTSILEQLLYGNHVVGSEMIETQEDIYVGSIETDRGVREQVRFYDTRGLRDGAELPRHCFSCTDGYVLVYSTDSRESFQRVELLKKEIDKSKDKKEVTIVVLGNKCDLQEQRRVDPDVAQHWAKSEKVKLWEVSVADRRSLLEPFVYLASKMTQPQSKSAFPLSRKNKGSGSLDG
# UniProt Q92686, whole entry, looked up: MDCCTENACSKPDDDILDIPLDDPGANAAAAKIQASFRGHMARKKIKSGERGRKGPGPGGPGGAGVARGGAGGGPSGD
# UniProt P78316: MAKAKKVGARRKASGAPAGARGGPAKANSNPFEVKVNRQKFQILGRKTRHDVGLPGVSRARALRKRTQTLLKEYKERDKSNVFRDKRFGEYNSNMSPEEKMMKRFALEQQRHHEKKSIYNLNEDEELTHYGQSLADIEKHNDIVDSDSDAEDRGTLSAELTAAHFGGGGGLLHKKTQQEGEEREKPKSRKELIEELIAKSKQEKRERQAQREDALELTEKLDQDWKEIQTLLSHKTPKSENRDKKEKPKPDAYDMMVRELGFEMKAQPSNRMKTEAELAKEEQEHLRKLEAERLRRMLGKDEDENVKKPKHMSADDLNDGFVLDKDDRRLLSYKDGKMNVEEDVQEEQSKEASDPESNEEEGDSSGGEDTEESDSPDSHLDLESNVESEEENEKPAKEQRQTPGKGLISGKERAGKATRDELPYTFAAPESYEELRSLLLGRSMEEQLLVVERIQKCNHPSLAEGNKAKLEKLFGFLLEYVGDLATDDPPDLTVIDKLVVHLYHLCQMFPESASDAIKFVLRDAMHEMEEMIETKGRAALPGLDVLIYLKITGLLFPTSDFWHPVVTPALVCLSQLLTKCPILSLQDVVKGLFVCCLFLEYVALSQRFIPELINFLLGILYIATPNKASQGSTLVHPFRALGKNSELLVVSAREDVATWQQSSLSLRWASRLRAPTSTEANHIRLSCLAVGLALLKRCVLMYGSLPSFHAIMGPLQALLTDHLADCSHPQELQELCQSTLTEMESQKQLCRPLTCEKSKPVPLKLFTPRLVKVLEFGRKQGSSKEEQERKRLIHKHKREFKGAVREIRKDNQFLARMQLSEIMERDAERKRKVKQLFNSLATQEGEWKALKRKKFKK
# Some of the results follow.
# Experiments:
# Test in all cases: log2 fold change, soluble protein after heating vs DMSO (PISA); higher = thermal stabilisation; K562 cells, 10 uM, 30 min; active = over 0.2 and 3.5 SD of the protein, either way, in both replicates (recomputed)
# givinostat = compound: CCN(CC)Cc1ccc2cc(COC(=O)Nc3ccc(C(=O)NO)cc3)ccc2c1 [givinostat]
# Method in brief: (§1)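 K562 cells (2×10^6 cells/mL) were treated with 10 μM compound for 30 min, and aliquots were heated for 3 min over 48°C-58°C. Pooled aliquots were extracted in PBS with 0.5% NP-40 at 4°C, and the supernatant after 21,000xg for 90 min was measured by TMTpro 16plex LC-MS/MS with channel sums equalised. Reported thermal stability, relative to control samples and from duplicates, is a log2 fold change.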
# barasertib = compound: CCN(CCCOc1ccc2c(Nc3cc(CC(=O)Nc4cccc(F)c4)[nH]n3)ncnc2c1)CCOP(=O)(O)O [barasertib]
# Method in brief: as §1
# [1] = compound: CCn1c(C(=O)N(C2CC2)C2CC2)cc2c3c(ncn3C)c(Nc3cc(C)n(C)n3)nc21
# Method in brief: as §1
# rosiglitazone = compound: CN(CCOC1=CC=C(C=C1)C[C@H]2C(=O)NC(=O)S2)C3=CC=CC=N3 (racemic) [rosiglitazone]
# Method in brief: as §1
# vemurafenib = compound: CCCS(=O)(=O)Nc1ccc(F)c(C(=O)c2c[nH]c3ncc(-c4ccc(Cl)cc4)cc23)c1F [vemurafenib]
# Method in brief: as §1
# [2] = compound: CN(C)CC(=O)Nc1ccc2[nH]c(=O)c3ccccc3c2c1
# Method in brief: as §1
# Nexturastat A = compound: CCCCN(Cc1ccc(C(=O)NO)cc1)C(=O)Nc1ccccc1 [Nexturastat A]
# Method in brief: as §1
# [3] = compound: CCCc1cc(C)[nH]c(=O)c1CNC(=O)c1cc(-c2ccnc(N3CCN(C)CC3)c2)cc2c1cnn2C(C)C
# Method in brief: as §1
# [4] = compound: CC[C@H](C)N1C=C(C2=C(C=C(C=C21)C3=CN=C(C=C3)N4CCNCC4)C(=O)NCC5=C(C=C(NC5=O)C)C)C
# Method in brief: as §1
# epoxomicin = compound: CC[C@H](C)[C@@H](C(=O)N[C@@H]([C@@H](C)O)C(=O)N[C@@H](CC(C)C)C(=O)[C@]1(CO1)C)NC(=O)[C@H]([C@@H](C)CC)N(C)C(=O)C [epoxomicin]
# Method in brief: as §1
# [5] = compound: CCn1cc(-c2ccnc3[nH]c(-c4cccc(CN(C)C)c4)cc23)c(-c2ccc(NC(=O)N(C)C)cc2)n1
# Method in brief: as §1
# [6] = compound: CN1CCC(CNc2ccc3ncc(-c4cccc(OC(F)(F)F)c4)n3n2)CC1
# Method in brief: as §1
# [7] = compound: CC1=CC=C(C=C1)SC2=C3C=C(SC3=CN=C2)C(=O)N
# Method in brief: as §1
# [8] = compound: CC1=NC(=CC=C1)C2=C(N=C(N2)C(C)(C)C)C3=CC4=NC=CN=C4C=C3
# Method in brief: as §1
# [9] = compound: CCCS(=O)(=O)Nc1ccc(F)c(C(=O)c2c[nH]c3ncc(Cl)cc23)c1F
# Method in brief: as §1
# [10] = compound: CC[C@@H]1C(=O)N(C)c2cnc(Nc3ccc(C(=O)NC4CCN(C)CC4)cc3OC)nc2N1C1CCCC1
# Method in brief: as §1
# volasertib = compound: CC[C@@H]1C(=O)N(C)c2cnc(Nc3ccc(C(=O)N[C@H]4CC[C@H](N5CCN(CC6CC6)CC5)CC4)cc3OC)nc2N1C(C)C [volasertib]
# Method in brief: as §1
# [11] = compound: CN1C2=C(C3=C1C(=O)N(N=C3)CC4=CC(=CC=C4)N)SC(=C2)S(=O)C
# Method in brief: as §1
# [12] = compound: CC1=C(C=C(C=C1)NC(=O)C2=CC(=CC=C2)C(C)(C)C#N)NC3=CC4=C(C=C3)N=CN(C4=O)C
# Method in brief: as §1
# [13] = compound: CC1=C(C=C(C=C1)NC(=O)C2=CC(=CC=C2)N(C)C)NC(=O)C3=CC=C(C=C3)O
# Method in brief: as §1
target,measurement,setting,value
NOTCH2 (UniProt Q04721),log2 fold change,givinostat,inactive: -0.061
same,log2 fold change,barasertib,inactive: -0.014
same,log2 fold change,[1],inactive: -0.015
same,log2 fold change,rosiglitazone,inactive: 0.212
NFIC isoform 6 (UniProt P08651),log2 fold change,vemurafenib,inactive: 0.318
same,log2 fold change,[2],inactive: 0.235
NOC3L (UniProt Q8WTT2),log2 fold change,Nexturastat A,inactive: -0.108
same,log2 fold change,[3],inactive: -0.726
same,log2 fold change,barasertib,inactive: 0
same,log2 fold change,[4],inactive: -0.09
same,log2 fold change,epoxomicin,inactive: -0.264
same,log2 fold change,[5],inactive: 0.058
same,log2 fold change,rosiglitazone,inactive: 0.114
same,log2 fold change,[6],inactive: -0.252
NR3C1 isoform 3 (UniProt P04150),log2 fold change,[7],inactive: -0.021
same,log2 fold change,[8],inactive: -0.102
same,log2 fold change,Nexturastat A,inactive: 0.114
same,log2 fold change,[9],inactive: -0.149
same,log2 fold change,[3],inactive: 0.136
same,log2 fold change,givinostat,inactive: 0.075
same,log2 fold change,[10],inactive: -0.196
same,log2 fold change,volasertib,inactive: -0.288
same,log2 fold change,[4],inactive: -0.103
same,log2 fold change,epoxomicin,inactive: -0.301
same,log2 fold change,[1],inactive: -0.13
same,log2 fold change,[11],inactive: 0.239
NRSN2 (UniProt Q9GZP1),log2 fold change,[12],inactive: -0.002
same,log2 fold change,Nexturastat A,inactive: 0.053
same,log2 fold change,givinostat,inactive: -0.007
same,log2 fold change,epoxomicin,inactive: 0.083
same,log2 fold change,[1],inactive: -0.229
same,log2 fold change,[11],inactive: -0.34
NSD3 (UniProt Q9BZ95),log2 fold change,[12],inactive: 0.038
same,log2 fold change,[8],inactive: -0.049
same,log2 fold change,Nexturastat A,inactive: 0.389
same,log2 fold change,vemurafenib,inactive: 0.017
same,log2 fold change,givinostat,inactive: -0.08
same,log2 fold change,barasertib,inactive: -0.081
same,log2 fold change,epoxomicin,inactive: -0.011
same,log2 fold change,[1],inactive: -0.098
same,log2 fold change,[5],inactive: 0.244
same,log2 fold change,[2],inactive: 0.076
same,log2 fold change,rosiglitazone,inactive: 0.34
same,log2 fold change,[11],inactive: -0.026
same,log2 fold change,[6],inactive: 0.081
NFKBIA (UniProt P25963),log2 fold change,[12],inactive: 0.101
same,log2 fold change,vemurafenib,inactive: 0.137
same,log2 fold change,givinostat,inactive: 0.038
same,log2 fold change,[10],inactive: -0.129
same,log2 fold change,[1],inactive: -0.101
same,log2 fold change,[5],inactive: 0.059
same,log2 fold change,[2],inactive: 0.183
same,log2 fold change,[11],inactive: -0.107
same,log2 fold change,[6],inactive: -0.194
NFE2L1 (UniProt Q14494),log2 fold change,[7],inactive: -0.054
same,log2 fold change,[8],inactive: 0.062
same,log2 fold change,Nexturastat A,inactive: 0.12
same,log2 fold change,vemurafenib,inactive: 0.028
same,log2 fold change,[9],inactive: 0.105
same,log2 fold change,givinostat,inactive: -0.015
same,log2 fold change,volasertib,inactive: -0.07
same,log2 fold change,epoxomicin,inactive: 0.205
same,log2 fold change,[1],inactive: 0.138
same,log2 fold change,[5],inactive: 0.117
same,log2 fold change,[2],inactive: -0.062
same,log2 fold change,[6],inactive: -0.193
NOMO3 (UniProt P69849),log2 fold change,[12],inactive: -0.075
same,log2 fold change,[8],inactive: -0.051
same,log2 fold change,Nexturastat A,inactive: -0.003
same,log2 fold change,givinostat,inactive: 0.024
same,log2 fold change,barasertib,inactive: 0.028
same,log2 fold change,epoxomicin,inactive: -0.031
same,log2 fold change,[1],inactive: -0.004
same,log2 fold change,rosiglitazone,inactive: 0.109
NFATC1 (UniProt O95644),log2 fold change,[12],inactive: 0.021
same,log2 fold change,[7],inactive: 0.029
same,log2 fold change,Nexturastat A,inactive: 0.177
same,log2 fold change,vemurafenib,inactive: -0.072
same,log2 fold change,[9],inactive: 0.088
same,log2 fold change,[3],inactive: 0.218
same,log2 fold change,[10],inactive: -0.01
same,log2 fold change,volasertib,inactive: -0.174
same,log2 fold change,epoxomicin,inactive: 0.227
same,log2 fold change,[2],inactive: -0.114
NOLC1 isoform 3 (UniProt Q14978),log2 fold change,givinostat,inactive: -0.02
NOL9 (UniProt Q5SY16),log2 fold change,givinostat,inactive: 0.02
same,log2 fold change,[1],inactive: 0.015
NOC4L (UniProt Q9BVI4),log2 fold change,[4],inactive: -0.196
same,log2 fold change,[5],inactive: 0.016
same,log2 fold change,[6],inactive: 0.281
NIPBL (UniProt Q6KC79),log2 fold change,[7],inactive: -0.012
same,log2 fold change,[8],inactive: 0
same,log2 fold change,Nexturastat A,inactive: 0.01
same,log2 fold change,[9],inactive: 0.074
same,log2 fold change,givinostat,inactive: 0.081
same,log2 fold change,barasertib,inactive: 0.034
same,log2 fold change,[10],inactive: -0.345
same,log2 fold change,volasertib,inactive: -0.333
same,log2 fold change,epoxomicin,inactive: -0.227
same,log2 fold change,[1],inactive: 0.184
same,log2 fold change,rosiglitazone,inactive: -0.007
NELFCD (UniProt Q8IXH7),log2 fold change,[7],inactive: 0.02
same,log2 fold change,[8],inactive: 0.18
same,log2 fold change,Nexturastat A,inactive: 0.094
same,log2 fold change,vemurafenib,inactive: 0.15
same,log2 fold change,[9],inactive: 0.051
same,log2 fold change,givinostat,inactive: 0.167
same,log2 fold change,barasertib,inactive: 0
same,log2 fold change,volasertib,active: -0.562
same,log2 fold change,[4],inactive: 0.244
same,log2 fold change,epoxomicin,inactive: -0.052
same,log2 fold change,[5],inactive: -0.113
same,log2 fold change,[2],inactive: 0.298
same,log2 fold change,[11],inactive: -0.05
same,log2 fold change,[6],inactive: 0.226
NRBP2 (UniProt Q9NSY0),log2 fold change,[13],inactive: -0.063
same,log2 fold change,[8],inactive: -0.005
same,log2 fold change,givinostat,inactive: 0.038
same,log2 fold change,[1],inactive: -0.065
NOL8 (UniProt Q76FK4),log2 fold change,[7],inactive: 0.053
same,log2 fold change,[9],inactive: 0.182
same,log2 fold change,volasertib,inactive: -0.133
same,log2 fold change,[5],inactive: 0.119
same,log2 fold change,[11],inactive: 0.108
same,log2 fold change,[6],inactive: -0.306
NKIRAS2 (UniProt Q9NYR9),log2 fold change,[12],inactive: -0.085
same,log2 fold change,[8],inactive: 0.177
same,log2 fold change,Nexturastat A,inactive: 0
same,log2 fold change,[3],inactive: 0.049
same,log2 fold change,givinostat,inactive: -0.135
same,log2 fold change,[4],inactive: -0.158
same,log2 fold change,epoxomicin,inactive: -0.07
same,log2 fold change,[1],inactive: -0.038
NRGN (UniProt Q92686),log2 fold change,[13],inactive: -0.168
same,log2 fold change,[7],inactive: 0.087
same,log2 fold change,[8],inactive: -0.171
same,log2 fold change,Nexturastat A,inactive: 0.143
same,log2 fold change,[9],inactive: 0.032
same,log2 fold change,givinostat,inactive: -0.034
same,log2 fold change,barasertib,inactive: -0.14
same,log2 fold change,volasertib,inactive: 0.052
same,log2 fold change,[4],inactive: -0.088
same,log2 fold change,epoxomicin,inactive: 0.162
same,log2 fold change,[5],inactive: 0.14
same,log2 fold change,[6],inactive: -0.547
NOP14 (UniProt P78316),log2 fold change,[12],inactive: 0.018
same,log2 fold change,[8],inactive: 0.002
same,log2 fold change,Nexturastat A,inactive: 0.156
same,log2 fold change,vemurafenib,inactive: 0.193
same,log2 fold change,[3],inactive: 0.204
same,log2 fold change,[4],inactive: 0.016
same,log2 fold change,epoxomicin,inactive: -0.024
same,log2 fold change,[5],inactive: 0.069
same,log2 fold change,[2],inactive: -0.015
same,log2 fold change,[11],inactive: 0.208
same,log2 fold change,[6],inactive: 0.067

# Taken from the results shown (29 entries):
target,measurement,setting,value
NFKBIA (UniProt P25963),log2 fold change,[10],inactive: -0.129
same,log2 fold change,[1],inactive: -0.101
same,log2 fold change,[5],inactive: 0.059
same,log2 fold change,[2],inactive: 0.183
same,log2 fold change,[11],inactive: -0.107
same,log2 fold change,[6],inactive: -0.194
NFE2L1 (UniProt Q14494),log2 fold change,[7],inactive: -0.054
same,log2 fold change,[8],inactive: 0.062
same,log2 fold change,Nexturastat A,inactive: 0.12
same,log2 fold change,vemurafenib,inactive: 0.028
same,log2 fold change,[9],inactive: 0.105
same,log2 fold change,givinostat,inactive: -0.015
same,log2 fold change,volasertib,inactive: -0.07
same,log2 fold change,epoxomicin,inactive: 0.205
same,log2 fold change,[1],inactive: 0.138
same,log2 fold change,[5],inactive: 0.117
same,log2 fold change,[2],inactive: -0.062
same,log2 fold change,[6],inactive: -0.193
NOMO3 (UniProt P69849),log2 fold change,[12],inactive: -0.075
same,log2 fold change,[8],inactive: -0.051
same,log2 fold change,Nexturastat A,inactive: -0.003
same,log2 fold change,givinostat,inactive: 0.024
same,log2 fold change,barasertib,inactive: 0.028
same,log2 fold change,epoxomicin,inactive: -0.031
same,log2 fold change,[1],inactive: -0.004
same,log2 fold change,rosiglitazone,inactive: 0.109
NFATC1 (UniProt O95644),log2 fold change,[12],inactive: 0.021
same,log2 fold change,[7],inactive: 0.029
same,log2 fold change,Nexturastat A,inactive: 0.177
